Results as given in patent publication US11234960B2, “Compositions and methods for improving mitochondrial function and treating neurodegenerative diseases and cognitive disorders” (Amazentis SA, priority 2010, dated 2022).
Some results were stated once for a whole list of compounds, not compound by compound.

Columns and labels:
[1] = tested on: PC-12 cells; assay: Neurite outgrowth in NGF-differentiated PC-12 cells; format: cell-based, rat; conditions: 0.5 μM; for mean outgrowth, increase over differentiated control: 72 h (FIG. 7)
Experimental: The ellagitannins and their metabolites tested in the assays were synthesized or purchased from suppliers which included Funakoshi, Sigma, and Chemos. Stock solutions were aliquoted and stored at −20° C.
PC-12 cells (ATCC CRL-1721) were cultured at 37° C., 5% CO2 in poly L-lysine-coated culture flasks in complete culture medium (RPMI 1640+10% heat-inactivated horse serum+5% fetal bovine serum).
Cell differentiation was performed in culture flasks 24 h after plating, in complete medium supplemented with 100 ng/mL NGF (2.5 S NGF, Invitrogen). The NGF-supplemented medium was renewed every third day, and differentiation was induced over an 8-day period.
All compounds to be tested were prepared just before the experiment as a 50 mM stock solution in dimethylsulfoxide (DMSO). The final DMSO concentration was 0.1% in the medium of all experimental groups.
For neurite outgrowth measurements, differentiated cells were washed with phosphate-buffered saline (PBS), collected after detachment and replated at a density of 5,000 cells/well (biocoat imaging 96 well plate) in complete medium supplemented with 100 ng/mL NGF, with or without 10 μM SP600125 (negative control), 1 mM dbcAMP (positive control), or tested compound at 5×10^−7 M. In the undifferentiated control group, no NGF was added after replating.
After 72 h in culture, PC-12 cells were washed with PBS and fixed in 1% paraformaldehyde solution for 20 minutes. After 3 washes with PBS, immunofluorescence labeling was performed with Texas Red Maleimide probe, which reacts with thiol groups of cysteine residues of proteins, permitting the visualization of the entire cell morphology, including neurites.
Immunofluorescence analysis was performed in automated confocal microscopy. Images were acquired with a BD pathway 855 system, under X20 objective with 8×8 field montage. Neurite outgrowth was then measured from acquired images with the neurite module of Metamorph® software. Total and mean outgrowth, total and mean number of processes per cell, and total and percentage of cells with extensive outgrowth (defined as outgrowth longer than 20 μm) were analyzed.

[2] = tested on: primary dopaminergic tyrosine hydroxylase (TH)-positive neurons; assay: Neurite outgrowth in primary dopaminergic TH-positive neurons; format: cell-based, rat
Experimental: Primary mesencephalic cultures were prepared from rat E14 embryos. Ventral mesencephalon was carefully dissected and dissociated. Cells were then plated in DMEM F12 medium containing 10% heat inactivated horse serum at the density of 100,000 cells/well (96-well plate), with or without the JNK-specific inhibitor SP600125 (10 μM) (which served as a negative control) or dbcAMP (1 mM) (which served as a positive control), or the compounds tested each at the doses of 0.1 μM.
72 h after plating, the effects on the neurite outgrowth of dopaminergic tyrosine hydroxylase (TH)-positive neurons were measured from images acquired by automated confocal microscopy (X4 objective, montage 4×4) and covering the entire well surface, and quantified using the Neurite outgrowth module of Metamorph® software. Several representative parameters of neurite outgrowth were thus generated: total and mean outgrowth, total and mean number of processes per cell, and total and percentage of cells with extensive outgrowth (defined as outgrowth longer than 20 μm) were analyzed. All experiments were performed in quadruplicate.

Molecule | mean outgrowth, increase over differentiated control [1] [%] | percent of cells showing significant outgrowth (>20 μm), increase vs differentiated cells ([1]; 72 h (FIG. 8)) [%] | number of processes, increase ([1]; 72 h, differentiated PC-12 cells (FIG. 9)) [%] | increase in number of PC-12 cells in the wells ([1]; 72 h, versus differentiated control (FIG. 6)) [%] | dendrite number, increase ([2]; 0.1 μM, 72 h (FIG. 15)) [%] | dendritic length, increase ([2]; 0.1 μM, 72 h (FIG. 16)) [%] | increase in branching ([2]; 72 h, compounds 0.1 μM, SP600125 10 μM, dbcAMP 1 mM (FIG. 14)) [%]
O=C1O[C@H]2[C@@H]3OC(=O)c4cc(O)c(O)c(O)c4-c4c(O)c(O)c5oc(=O)c6c(c(O)c(O)c7oc(=O)c4c5c76)-c4c(cc(O)c(O)c4O)C(=O)OC[C@H]3OC(O)[C@@H]2OC(=O)c2cc(O)c(O)c(O)c2-c2c1cc(O)c(O)c2O (mixture of isomers) [punicalagin, 2,3 hexahydroxydiphenoyl-4,6-gallagylglucose] | > 30 | – | – | – | – | – | –
tellimagrandin | > 30 | > 37 | > 31 | > 30 | > 18 | > 26 | > 111
